# Source: article PMC10361663
# No constants are given. Whether binding was seen depends on the method and setting. In cells and extracts the contact can be indirect. Binding calls can cover weak binding; strength is not graded here.
# Target: T1, HURP (Hepatoma Upregulated Protein) (human (endogenous in HeLa Kyoto)) (UniProt Q15398)
# T1 sequence: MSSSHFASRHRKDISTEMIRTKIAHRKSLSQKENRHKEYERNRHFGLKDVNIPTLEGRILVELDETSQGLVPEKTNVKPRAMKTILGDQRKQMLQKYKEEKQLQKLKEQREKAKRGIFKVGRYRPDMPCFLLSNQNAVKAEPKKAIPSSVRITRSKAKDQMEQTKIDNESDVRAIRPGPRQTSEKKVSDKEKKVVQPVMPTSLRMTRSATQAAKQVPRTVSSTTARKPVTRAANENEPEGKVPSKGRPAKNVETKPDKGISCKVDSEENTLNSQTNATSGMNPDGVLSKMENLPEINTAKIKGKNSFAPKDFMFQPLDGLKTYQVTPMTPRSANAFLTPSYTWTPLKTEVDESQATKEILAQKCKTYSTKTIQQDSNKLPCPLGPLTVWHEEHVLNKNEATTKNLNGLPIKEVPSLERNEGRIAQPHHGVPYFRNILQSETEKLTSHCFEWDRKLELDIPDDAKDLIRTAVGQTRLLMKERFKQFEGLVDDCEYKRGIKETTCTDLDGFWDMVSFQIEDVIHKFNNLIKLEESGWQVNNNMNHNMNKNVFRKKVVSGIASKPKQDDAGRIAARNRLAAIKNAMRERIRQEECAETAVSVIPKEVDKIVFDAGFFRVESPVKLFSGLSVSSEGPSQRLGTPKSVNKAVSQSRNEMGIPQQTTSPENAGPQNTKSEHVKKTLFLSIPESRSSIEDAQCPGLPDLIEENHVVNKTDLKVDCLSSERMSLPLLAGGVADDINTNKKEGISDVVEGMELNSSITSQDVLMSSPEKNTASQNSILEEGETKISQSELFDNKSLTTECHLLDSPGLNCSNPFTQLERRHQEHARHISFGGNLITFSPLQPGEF
# Assay: co-IP; HeLa Kyoto mitotic cell extracts (Nocodazole arrest, RIPA buffer, 1 mg per IP); IP with anti-HURP antibodies (ab70744, GKAP or DHL5 antisera) on protein A agarose, 4°C; Western blot; controls pre-immune IgG, rabbit IgG or anti-GFP antibody
substance,measurement,value
Dynein (human (endogenous in HeLa Kyoto)),binding,binds
